Data on one sequence can be found in article PMC4051164, “Multiple transcription factors directly regulate Hox gene lin-39 expression in ventral hypodermal cells of the C. elegans embryo and larva, including the hypodermal fate regulators LIN-26 and ELT-6”.

The exact form of at least one protein or probe is not confirmed. Tags and fusion partners may be left off the protein sequences shown.

For the data set, the target named is T1, TBX-9 (Caenorhabditis elegans) (UniProt Q22289).
T1 sequence (looked up, limits assumed): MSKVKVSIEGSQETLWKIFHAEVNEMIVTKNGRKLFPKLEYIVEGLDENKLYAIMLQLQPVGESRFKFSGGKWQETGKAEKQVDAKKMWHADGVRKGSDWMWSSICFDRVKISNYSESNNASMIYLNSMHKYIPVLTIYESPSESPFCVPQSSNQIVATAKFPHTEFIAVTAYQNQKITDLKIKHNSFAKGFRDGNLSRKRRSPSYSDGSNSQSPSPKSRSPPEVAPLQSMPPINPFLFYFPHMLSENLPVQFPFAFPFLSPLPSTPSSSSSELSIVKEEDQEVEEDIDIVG
The data set can be described thus: EMSA. Conditions: 50 mM KCl, 20 mM HEPES pH 7.9, 0.2 mM EDTA, 0.5 mM DTT, 3 mM MgCl2, 1 ug poly(dI-dC), 0.5 ug/ul BSA, 0-800 ng protein, 20 ul, 20 min on ice (4 C); recombinant protein; protein details: N-terminal 6His (pQE-80L); label: 32P. On the technique in general: Mobility shift assays separate free from complexed probe on a gel.

With “GTTACACCGTGTTCTCCCTCATCACAGCTATCAGAGCAACTTGTCAAAGTATTTGGACTCCCCGCAGCGGTATCTCTCTTATTGACAGTTGATTTGGGTGTGCACCTTGCGTTCGGACAGCATTGTGCACTTTGTGTTATGTCTTGCGGCTTCTTTTCTACTCTTGACACGCTTGTGATCGATGATGATGATTCGGATTCTAGTGGTGAAGCACTGATGGAGGAAATTAACAAGTTGGGCAAGAGTGGAGGTTATCG (double strand) [YF9]”, the binding result was “binds”.
